Numbering of substitutions follows the chain as printed. Read-outs that look alike come from different tables or passages of the source. These are yes or no findings as the source states them, for the method shown. In cells and extracts the contact can be indirect. These calls come from enrichment with a bait or labelling near it, and not all partners need be listed. For part of these data: A no says only that the protein was not detected with the bait. For part of these data: Tags and fused reporters may be left off the sequences shown.
T1: SIN3A (human (endogenous in HEK293T, MCF-10A and MDA-MB-231)) (UniProt Q96ST3)
T1 sequence: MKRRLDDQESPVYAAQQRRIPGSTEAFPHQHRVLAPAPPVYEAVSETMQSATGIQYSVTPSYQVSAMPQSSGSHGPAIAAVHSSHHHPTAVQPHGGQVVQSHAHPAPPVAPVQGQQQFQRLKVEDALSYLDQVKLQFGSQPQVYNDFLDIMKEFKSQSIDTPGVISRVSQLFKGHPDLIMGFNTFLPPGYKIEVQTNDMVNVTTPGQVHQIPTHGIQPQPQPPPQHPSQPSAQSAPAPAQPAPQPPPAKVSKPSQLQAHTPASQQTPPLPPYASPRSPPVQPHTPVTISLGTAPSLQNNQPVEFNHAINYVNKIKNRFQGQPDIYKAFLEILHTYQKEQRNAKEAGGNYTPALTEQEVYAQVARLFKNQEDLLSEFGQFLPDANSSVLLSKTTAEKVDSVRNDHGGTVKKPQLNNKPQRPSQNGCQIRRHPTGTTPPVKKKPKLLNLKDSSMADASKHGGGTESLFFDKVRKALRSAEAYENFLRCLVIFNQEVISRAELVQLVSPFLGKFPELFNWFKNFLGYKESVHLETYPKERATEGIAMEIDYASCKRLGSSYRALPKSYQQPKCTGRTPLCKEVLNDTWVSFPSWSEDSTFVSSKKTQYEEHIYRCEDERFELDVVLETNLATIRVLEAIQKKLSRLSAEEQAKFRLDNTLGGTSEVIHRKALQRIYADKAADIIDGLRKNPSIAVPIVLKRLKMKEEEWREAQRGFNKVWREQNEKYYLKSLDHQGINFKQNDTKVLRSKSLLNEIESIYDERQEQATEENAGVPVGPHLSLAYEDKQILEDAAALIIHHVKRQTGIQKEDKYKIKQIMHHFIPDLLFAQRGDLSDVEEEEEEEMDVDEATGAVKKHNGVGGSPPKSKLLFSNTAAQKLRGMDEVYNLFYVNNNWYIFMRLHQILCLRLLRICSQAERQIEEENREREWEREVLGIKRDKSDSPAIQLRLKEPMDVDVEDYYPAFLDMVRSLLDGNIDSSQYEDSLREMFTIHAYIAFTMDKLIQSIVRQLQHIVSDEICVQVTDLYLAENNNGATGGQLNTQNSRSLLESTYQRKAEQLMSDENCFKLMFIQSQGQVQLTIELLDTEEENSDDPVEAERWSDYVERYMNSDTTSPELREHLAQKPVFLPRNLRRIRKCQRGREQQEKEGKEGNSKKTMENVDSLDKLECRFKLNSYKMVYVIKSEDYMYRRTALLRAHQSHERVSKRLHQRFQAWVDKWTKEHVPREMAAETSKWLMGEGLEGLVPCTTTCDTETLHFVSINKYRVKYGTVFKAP

Amino acid sequences for entries named in this document (tags omitted).
UniProt Q92769: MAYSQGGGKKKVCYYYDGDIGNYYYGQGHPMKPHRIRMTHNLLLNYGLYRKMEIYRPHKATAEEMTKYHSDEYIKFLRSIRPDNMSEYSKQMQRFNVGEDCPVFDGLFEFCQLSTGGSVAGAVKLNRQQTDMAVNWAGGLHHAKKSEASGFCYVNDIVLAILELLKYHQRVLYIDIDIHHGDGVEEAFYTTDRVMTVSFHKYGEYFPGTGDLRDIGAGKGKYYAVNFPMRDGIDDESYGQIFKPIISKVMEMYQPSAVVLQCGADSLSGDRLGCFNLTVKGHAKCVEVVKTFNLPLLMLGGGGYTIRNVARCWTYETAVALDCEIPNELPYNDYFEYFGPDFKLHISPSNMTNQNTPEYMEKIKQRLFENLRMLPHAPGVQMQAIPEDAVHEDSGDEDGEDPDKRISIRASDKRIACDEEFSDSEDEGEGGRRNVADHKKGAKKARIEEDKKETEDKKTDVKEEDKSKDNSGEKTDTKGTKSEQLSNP

T2: Halo-tagged BRMS1^S237A
T2 sequence: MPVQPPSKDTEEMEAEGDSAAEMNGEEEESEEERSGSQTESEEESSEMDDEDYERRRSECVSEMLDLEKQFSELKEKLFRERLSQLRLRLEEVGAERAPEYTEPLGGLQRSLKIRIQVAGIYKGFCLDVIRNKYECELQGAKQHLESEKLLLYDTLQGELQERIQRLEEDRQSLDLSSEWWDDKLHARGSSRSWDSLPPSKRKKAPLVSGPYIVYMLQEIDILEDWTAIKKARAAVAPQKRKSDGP

T3: Halo-tagged BRMS1 wild-type (BRMS1^WT), Breast Cancer Metastasis Suppressor 1
T3 sequence: T2 sequence with A237S

T4: Halo-tagged BRMS1^S237D
T4 sequence: T2 sequence with A237D

B1: BBX (protein, UniProt Q8WY36 1-941)
chain: MKGSNRNKDHSAEGEGVGKRPKRKCLQWHPLLAKKLLDFSEEEEEEDEEEDIDKVQLLGADGLEQDVGETEDDESPEQRARRPMNAFLLFCKRHRSLVRQEHPRLDNRGATKILADWWAVLDPKEKQKYTDMAKEYKDAFMKANPGYKWCPTTNKPVKSPTPTVNPRKKLWAFPSDSSRDLPSPKKAKTEEMPQLNFGMADPTQMGGLSMLLLAGEHALGTPEVSSGTCRPDVSESPELRQKSPLFQFAEISSSTSHSDASTKQCQTSALFQFAEISSNTSQLGGAEPVKRCGKSALFQLAEMCLASEGMKMEESKLIKAKESDGGRIKELEKGKEEKEIKMEKTDETRLQKEAEFEKSAKENLRDSKELRNFEALQIDDIMAIKMEDPKEIRKEELEEDHKCSHFPDFSYSASSKIIISDVPSRKDHMCHPHGIMIIEDPAALNKPEKLKKKKKKSKMDRHGNDKSTPKKTCKKRQSSESDIESVIYTIEAVAKGDWGIEKLGDTPRKKVRTSSSGKGSILDAKPPKKKVKSREKKMSKEKSSDTTKESRPPDFISISASKNISGETPEGIKAEPLTPMEDALPPSLSGQAKPEDSDCHRKIETCGSRKSERSCKGALYKTLVSEGMLTSLRANVDRGKRSSGKGNSSDHEGCWNEESWTFSQSGTSGSKKFKKTKPKEDCLLGSAKLDEEFEKKFNSLPQYSPVTFDRKCVPVPRKKKKTGNVSSEPTKTSKGPFQSQKKNLFHKIVSKYKHKKEKPNVPEKGSGDKWSNKQLFLDAIHPTEAIFSEDRNTMEPVHKVKNIPSIFNTPEPTTTQEPLVGSQKRKARKTKITHLVRTADGRVSPAGGTLDDKPKEQLQRSLPKATETDCNDKCSHNTEVGETRSSTPEMPAVSAFFSLAALAEVAAMENVHRGQRSTPLTHDGQPKEMPQAPVLISCADQ
B2: BRMS1 (endogenous) (protein, UniProt Q9HCU9 1-246)
chain: T2 sequence with A237S

Legend:
[1] = target: T1, SIN3A (human (endogenous in HEK293T, MCF-10A and MDA-MB-231)); experiment: affinity purification with mass spectrometry; co-IP of endogenous SIN3A with a polyclonal antibody from nuclear lysate of MCF-10A cells; gel, in-gel digestion, MALDI-TOF
Halo-tagged BRMS1^S237A [2] = target: T2, Halo-tagged BRMS1^S237A; experiment: affinity purification with mass spectrometry; Halo-BRMS1 constructs transfected in HEK293T; lysate (50 mM Tris-HCl pH 7.5, 150 mM NaCl, 1% Triton X-100, 0.1% sodium deoxycholate) incubated overnight at 4°C with Magne HaloTag beads; TEV elution; MudPIT; Halo tag alone as negative control; three replicates a bait; QSPEC and TopS scoring
[3] = target: T3, Halo-tagged BRMS1 wild-type (BRMS1^WT), Breast Cancer Metastasis Suppressor 1; experiment: as above
Halo-tagged BRMS1^S237D [4] = target: T4, Halo-tagged BRMS1^S237D; experiment: as above
[5] = target: T1, SIN3A (human (endogenous in HEK293T, MCF-10A and MDA-MB-231)); experiment: condition: only in nuclear lysate of MDA-MB-231 cells; affinity purification with mass spectrometry; co-IP of endogenous SIN3A with a polyclonal antibody from nuclear lysate of MDA-MB-231 cells; gel, in-gel digestion, MALDI-TOF
Halo-tagged BRMS1^S237A [6] = target: T2, Halo-tagged BRMS1^S237A; experiment: affinity purification with mass spectrometry; Halo-BRMS1 constructs transfected in HEK293T; lysate (50 mM Tris-HCl pH 7.5, 150 mM NaCl, 1% Triton X-100, 0.1% sodium deoxycholate) incubated overnight at 4°C with Magne HaloTag beads; TEV elution; MudPIT; Halo tag alone as negative control; three replicates a bait; QSPEC and TopS scoring; remark: listed apart in the source
Halo-tagged BRMS1^S237D [7] = target: T4, Halo-tagged BRMS1^S237D; experiment: as above; remark: listed apart in the source
[8] = target: T1, SIN3A (human (endogenous in HEK293T, MCF-10A and MDA-MB-231)); experiment: affinity purification with mass spectrometry; co-IP of endogenous SIN3A with a polyclonal antibody from nuclear lysate of MDA-MB-231 cells; gel, in-gel digestion, MALDI-TOF

Row | Molecule | binding [1] | binding (Halo-tagged BRMS1^S237A [2]) | binding [3] | binding (Halo-tagged BRMS1^S237D [4]) | binding [5] | binding (Halo-tagged BRMS1^S237A [6]) | binding (Halo-tagged BRMS1^S237D [7]) | binding [8]
1 | HDAC2 (from UniProt Q92769 1-488) | binds | binds | binds | binds | no binding | – | – | –
2 | B1 | – | – | – | – | – | binds | binds | –
3 | B2 | no binding (only in nuclear lysate of MCF-10A cells) | – | – | – | – | – | – | binds
